The results in this text go back to patent US12729225B2, “Non-canonical SWI/SNF complex and uses thereof” (Dana-Farber Cancer Institute, Inc., priority 2018, dated 2026).

The data set deals with mSWI/SNF complexes. The data set can be described thus: mSWI/SNF complex purification with HA-tagged baits and mass spectrometry (peptide counts). As to conditions: 293_HA-BRD7: HA-BRD7 bait purification; for Total: total peptide count per co-purified protein; for Unique: unique peptide count per co-purified protein. Details: species or system human.

B1: U2AF2 (protein, UniProt P26368 2-475, looked up)
Splicing factor U2AF 65 kDa …: SDFDEFERQLNENKQERDKENRHRKRSHSRSRSRDRKRRSRSRDRRNRDQRSASRDRRRRSKPLTRGAKEEHGGLIRSPRHEKKKKVRKYWDVPPPGFEHITPMQYKAMQAAGQIPATALLPTMTPDGLAVTPTPVPVVGSQMTRQARRLYVGNIPFGITEEAMMDFFNAQMRLGGLTQAPGNPVLAVQINQDKNFAFLEFRSVDETTQAMAFDGIIFQGQSLKIRRPHDYQPLPGMSENPSVYVPGVVSTVVPDSAHKLFIGGLPNYLNDDQVKELLTSFGPLKAFNLVKDSATGLSKGYAFCEYVDINVTDQAIAGLNGMQLGDKKLLVQRASVGAKNATLVSPPSTINQTPVTLQVPGLMSSQVQMGGHPTEVLCLMNMVLPEELLDDEEYEEIVEDVRDECSKYGLVKSIEIPRPVDGVEVPGCGKIFVEFTSVFDCQKAMQGLTGRKFANRVVVTKYCDPDSYHRRDFW
B1 showed a Total of 58 and a Unique of 29.

B2: GANAB (protein, UniProt Q14697 29-944, looked up)
Neutral alpha-glucosidase AB: ITLAVDRSNFKTCEESSFCKRQRSIRPGLSPYRALLDSLQLGPDSLTVHLIHEVTKVLLVLELQGLQKNMTRFRIDELEPRRPRYRVPDVLVADPPIARLSVSGRDENSVELTMAEGPYKIILTARPFRLDLLEDRSLLLSVNARGLLEFEHQRAPRVSQGSKDPAEGDGAQPEETPRDGDKPEETQGKAEKDEPGAWEETFKTHSDSKPYGPMSVGLDFSLPGMEHVYGIPEHADNLRLKVTEGGEPYRLYNLDVFQYELYNPMALYGSVPVLLAHNPHRDLGIFWLNAAETWVDISSNTAGKTLFGKMMDYLQGSGETPQTDVRWMSETGIIDVFLLLGPSISDVFRQYASLTGTQALPPLFSLGYHQSRWNYRDEADVLEVDQGFDDHNLPCDVIWLDIEHADGKRYFTWDPSRFPQPRTMLERLASKRRKLVAIVDPHIKVDSGYRVHEELRNLGLYVKTRDGSDYEGWCWPGSAGYPDFTNPTMRAWWANMFSYDNYEGSAPNLFVWNDMNEPSVFNGPEVTMLKDAQHYGGWEHRDVHNIYGLYVHMATADGLRQRSGGMERPFVLARAFFAGSQRFGAVWTGDNTAEWDHLKISIPMCLSLGLVGLSFCGADVGGFFKNPEPELLVRWYQMGAYQPFFRAHAHLDTGRREPWLLPSQHNDIIRDALGQRYSLLPFWYTLLYQAHREGIPVMRPLWVQYPQDVTTFNIDDQYLLGDALLVHPVSDSGAHGVQVYLPGQGEVWYDIQSYQKHHGPQTLYLPVTLSSIPVFQRGGTIVPRWMRVRRSSECMKDDPITLFVALSPQGTAQGELFLDDGHTFNYQTRQEFLLRRFSFSGNTLVSSSADPEGHFETPIWIERVVIIGAGKPAAVVLQTKGSPESRLSFQHDPETSVLVLRKPGINVASDWSIHLR
B2 gave a Total of 5 and a Unique of 5.

B3: SLC1A5 (protein, UniProt Q15758 1-541, looked up)
Neutral amino acid …: MVADPPRDSKGLAAAEPTANGGLALASIEDQGAAAGGYCGSRDQVRRCLRANLLVLLTVVAVVAGVALGLGVSGAGGALALGPERLSAFVFPGELLLRLLRMIILPLVVCSLIGGAASLDPGALGRLGAWALLFFLVTTLLASALGVGLALALQPGAASAAINASVGAAGSAENAPSKEVLDSFLDLARNIFPSNLVSAAFRSYSTTYEERNITGTRVKVPVGQEVEGMNILGLVVFAIVFGVALRKLGPEGELLIRFFNSFNEATMVLVSWIMWYAPVGIMFLVAGKIVEMEDVGLLFARLGKYILCCLLGHAIHGLLVLPLIYFLFTRKNPYRFLWGIVTPLATAFGTSSSSATLPLMMKCVEENNGVAKHISRFILPIGATVNMDGAALFQCVAAVFIAQLSQQSLDFVKIITILVTATASSVGAAGIPAGGVLTLAIILEAVNLPVDHISLILAVDWLVDRSCTVLNVEGDALGAGLLQNYVDRTESRSTEPELIQVKSELPLDPLPVPTEEGNPLLKHYRGPAGDATVASEKESVM
Consider B3, for which the Total is 5 and the Unique stood at 5.

B4: RCC1 (protein, UniProt P18754 2-421, looked up)
Regulator of chromosome …: SPKRIAKRRSPPADAIPKSKKVKVSHRSHSTEPGLVLTLGQGDVGQLGLGENVMERKKPALVSIPEDVVQAEAGGMHTVCLSKSGQVYSFGCNDEGALGRDTSVEGSEMVPGKVELQEKVVQVSAGDSHTAALTDDGRVFLWGSFRDNNGVIGLLEPMKKSMVPVQVQLDVPVVKVASGNDHLVMLTADGDLYTLGCGEQGQLGRVPELFANRGGRQGLERLLVPKCVMLKSRGSRGHVRFQDAFCGAYFTFAISHEGHVYGFGLSNYHQLGTPGTESCFIPQNLTSFKNSTKSWVGFSGGQHHTVCMDSEGKAYSLGRAEYGRLGLGEGAEEKSIPTLISRLPAVSSVACGASVGYAVTKDGRVFAWGMGTNYQLGTGQDEDAWSPVEMMGKQLENRVVLSVSSGGQHTVLLVKDKEQS
Take B4: the Total was determined as 5 and the Unique was determined as 5.

B5: SF3B1 (protein)
chain: MAKIAKTHEDIEAQIREIQGKKAALDEAQGVGLDSTGYYDQEIYGGSDSRFAGYVTSIAATELEDDDDDYSSSTSLLGQKKPGYHAPVALLNDIPQSTEQYDPFAEHRPPKIADREDEYKKHRRTMIISPERLDPFADGGKTPDPKMNARTYMDVMREQHLTKEEREIRQQLAEKAKAGELKVVNGAAASQPPSKRKRRWDQTADQTPGATPKKLSSWDQAETPGHTPSLRWDETPGRAKGSETPGATPGSKIWDPTPSHTPAGAATPGRGDTPGHATPGHGGATSSARKNRWDETPKTERDTPGHGSGWAETPRTDRGGDSIGETPTPGASKRKSRWDETPASQMGGSTPVLTPGKTPIGTPAMNMATPTPGHIMSMTPEQLQAWRWEREIDERNRPLSDEELDAMFPEGYKVLPPPAGYVPIRTPARKLTATPTPLGGMTGFHMQTEDRTMKSVNDQPSGNLPFLKPDDIQYFDKLLVDVDESTLSPEEQKERKIMKLLLKIKNGTPPMRKAALRQITDKAREFGAGPLFNQILPLLMSPTLEDQERHLLVKVIDRILYKLDDLVRPYVHKILVVIEPLLIDEDYYARVEGREIISNLAKAAGLATMISTMRPDIDNMDEYVRNTTARAFAVVASALGIPSLLPFLKAVCKSKKSWQARHTGIKIVQQIAILMGCAILPHLRSLVEIIEHGLVDEQQKVRTISALAIAALAEAATPYGIESFDSVLKPLWKGIRQHRGKGLAAFLKAIGYLIPLMDAEYANYYTREVMLILIREFQSPDEEMKKIVLKVVKQCCGTDGVEANYIKTEILPPFFKHFWQHRMALDRRNYRQLVDTTVELANKVGAAEIISRIVDDLKDEAEQYRKMVMETIEKIMGNLGAADIDHKLEEQLIDGILYAFQEQTTEDSVMLNGFGTVVNALGKRVKPYLPQICGTVLWRLNNKSAKVRQQAADLISRTAVVMKTCQEEKLMGHLGVVLYEYLGEEYPEVLGSILGALKAIVNVIGMHKMTPPIKDLLPRLTPILKNRHEKVQENCIDLVGRIADRGAEYVSAREWMRICFELLELLKAHKKAIRRATVNTFGYIAKAIGPHDVLATLLNNLKVQERQNRVCTTVAIAIVAETCSPFTVLPALMNEYRVPELNVQNGVLKSLSFLFEYIGEMGKDYIYAVTPLLEDALMDRDLVHRQTASAVVQHMSLGVYGFGCEDSLNHLLNYVWPNVFETSPHVIQAVMGALEGLRVAIGPCRMLQYCLQGLFHPARKVRDVYWKIYNSIYIGSQDALIAHYPRIYNDDKNTYIRYELDYIL
As to B5, the Total was determined as 5 and the Unique stood at 5.

B6: MOGS (protein, UniProt Q13724 1-837, looked up)
Mannosyl-oligosaccharide …: MARGERRRRAVPAEGVRTAERAARGGPGRRDGRGGGPRSTAGGVALAVVVLSLALGMSGRWVLAWYRARRAVTLHSAPPVLPADSSSPAVAPDLFWGTYRPHVYFGMKTRSPKPLLTGLMWAQQGTTPGTPKLRHTCEQGDGVGPYGWEFHDGLSFGRQHIQDGALRLTTEFVKRPGGQHGGDWSWRVTVEPQDSGTSALPLVSLFFYVVTDGKEVLLPEVGAKGQLKFISGHTSELGDFRFTLLPPTSPGDTAPKYGSYNVFWTSNPGLPLLTEMVKSRLNSWFQHRPPGAPPERYLGLPGSLKWEDRGPSGQGQGQFLIQQVTLKIPISIEFVFESGSAQAGGNQALPRLAGSLLTQALESHAEGFRERFEKTFQLKEKGLSSGEQVLGQAALSGLLGGIGYFYGQGLVLPDIGVEGSEQKVDPALFPPVPLFTAVPSRSFFPRGFLWDEGFHQLVVQRWDPSLTREALGHWLGLLNADGWIGREQILGDEARARVPPEFLVQRAVHANPPTLLLPVAHMLEVGDPDDLAFLRKALPRLHAWFSWLHQSQAGPLPLSYRWRGRDPALPTLLNPKTLPSGLDDYPRASHPSVTERHLDLRCWVALGARVLTRLAEHLGEAEVAAELGPLAASLEAAESLDELHWAPELGVFADFGNHTKAVQLKPRPPQGLVRVVGRPQPQLQYVDALGYVSLFPLLLRLLDPTSSRLGPLLDILADSRHLWSPFGLRSLAASSSFYGQRNSEHDPPYWRGAVWLNVNYLALGALHHYGHLEGPHQARAAKLHGELRANVVGNVWRQYQATGFLWEQYSDRDGRGMGCRPFHGWTSLVLLAMAEDY
B6 registered a Total of 5 and a Unique of 5.

B7: RRP12 (protein, UniProt Q5JTH9 1-1297, looked up)
RRP12-like protein: MGRSGKLPSGVSAKLKRWKKGHSSDSNPAICRHRQAARSRFFSRPSGRSDLTVDAVKLHNELQSGSLRLGKSEAPETPMEEEAELVLTEKSSGTFLSGLSDCTNVTFSKVQRFWESNSAAHKEICAVLAAVTEVIRSQGGKETETEYFAALMTTMEAVESPESLAAVAYLLNLVLKRVPSPVLIKKFSDTSKAFMDIMSAQASSGSTSVLRWVLSCLATLLRKQDLEAWGYPVTLQVYHGLLSFTVHPKPKIRKAAQHGVCSVLKGSEFMFEKAPAHHPAAISTAKFCIQEIEKSGGSKEATTTLHMLTLLKDLLPCFPEGLVKSCSETLLRVMTLSHVLVTACAMQAFHSLFHARPGLSTLSAELNAQIITALYDYVPSENDLQPLLAWLKVMEKAHINLVRLQWDLGLGHLPRFFGTAVTCLLSPHSQVLTAATQSLKEILKECVAPHMADIGSVTSSASGPAQSVAKMFRAVEEGLTYKFHAAWSSVLQLLCVFFEACGRQAHPVMRKCLQSLCDLRLSPHFPHTAALDQAVGAAVTSMGPEVVLQAVPLEIDGSEETLDFPRSWLLPVIRDHVQETRLGFFTTYFLPLANTLKSKAMDLAQAGSTVESKIYDTLQWQMWTLLPGFCTRPTDVAISFKGLARTLGMAISERPDLRVTVCQALRTLITKGCQAEADRAEVSRFAKNFLPILFNLYGQPVAAGDTPAPRRAVLETIRTYLTITDTQLVNSLLEKASEKVLDPASSDFTRLSVLDLVVALAPCADEAAISKLYSTIRPYLESKAHGVQKKAYRVLEEVCASPQGPGALFVQSHLEDLKKTLLDSLRSTSSPAKRPRLKCLLHIVRKLSAEHKEFITALIPEVILCTKEVSVGARKNAFALLVEMGHAFLRFGSNQEEALQCYLVLIYPGLVGAVTMVSCSILALTHLLFEFKGLMGTSTVEQLLENVCLLLASRTRDVVKSALGFIKVAVTVMDVAHLAKHVQLVMEAIGKLSDDMRRHFRMKLRNLFTKFIRKFGFELVKRLLPEEYHRVLVNIRKAEARAKRHRALSQAAVEEEEEEEEEEEPAQGKGDSIEEILADSEDEEDNEEEERSRGKEQRKLARQRSRAWLKEGGGDEPLNFLDPKVAQRVLATQPGPGRGRKKDHGFKVSADGRLIIREEADGNKMEEEEGAKGEDEEMADPMEDVIIRNKKHQKLKHQKEAEEEELEIPPQYQAGGSGIHRPVAKKAMPGAEYKAKKAKGDVKKKGRPDPYAYIPLNRSKLNRRKKMKLQGQFKGLVKAARRGSQVGHKNRRKDRRP
As to B7, the Total is given as 5 and the Unique is recorded as 5.
